Test results as given in publication PMC4669748.
Results are given in words; binding and its absence hold for the method and conditions named. For part of these data: Binding seen in cells or lysates may run through a third protein. Some results given as binding are weak or reduced against the parent protein; the word gives no strength. For part of these data: Sequences can lack the tags named with a protein. Blank lines part the entries; values can stand above or below the binder they belong to.

By UniProt entry, the sequences of proteins in these tests, tags left out.
UniProt P31749: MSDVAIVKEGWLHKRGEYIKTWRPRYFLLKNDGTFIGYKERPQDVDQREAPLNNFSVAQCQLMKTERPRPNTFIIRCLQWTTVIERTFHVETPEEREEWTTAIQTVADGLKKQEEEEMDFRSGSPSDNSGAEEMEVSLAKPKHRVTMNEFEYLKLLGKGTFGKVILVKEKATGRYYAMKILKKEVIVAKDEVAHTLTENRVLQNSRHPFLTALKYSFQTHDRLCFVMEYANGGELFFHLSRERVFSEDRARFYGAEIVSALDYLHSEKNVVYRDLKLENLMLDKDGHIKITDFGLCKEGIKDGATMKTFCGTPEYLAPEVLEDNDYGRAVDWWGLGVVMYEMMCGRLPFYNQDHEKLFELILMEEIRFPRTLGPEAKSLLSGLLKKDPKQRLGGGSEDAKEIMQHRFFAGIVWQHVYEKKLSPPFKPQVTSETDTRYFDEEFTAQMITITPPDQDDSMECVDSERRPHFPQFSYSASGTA

Key:
HA-tagged AKT, P31749 = experiment: co-IP; 293 T cells transfected with HA-AKT, with or without myc-BTG3; serum stimulation; PDK1 blotted in immunoprecipitated HA-AKT, or AKT in immunoprecipitated PDK1; settings: remark: other sources report otherwise
[1] = molecular target: GST fused with full-length AKT (UniProt P31749); experiment: pull-down; GST pull-down of His-tagged full-length BTG3 by GST-AKT with a 20 x molar excess of a synthetic peptide as competitor; both purified
[2] = molecular target: GST fused with full-length AKT (UniProt P31749); experiment: pull-down; GST pull-down with purified recombinant His-BTG3 and GST or GST fused with full-length or truncated AKT; both purified
[3] = molecular target: endogenous AKT (human (endogenous in 293T)) (UniProt P31749); experiment: co-IP; endogenous proteins from 293 T lysates, immunoprecipitated with anti-BTG3 or anti-AKT (no. 610860; BD Biosciences) antibody
HA-tagged AKT = HA-tagged AKT (UniProt P31749); experiment: co-IP; 293 T cells transfected with HA-AKT, with or without myc-BTG3; serum stimulation; PDK1 blotted in immunoprecipitated HA-AKT, or AKT in immunoprecipitated PDK1

B1: PDK1 (phosphoinositide-dependent kinase-1), O15530 1-556 (protein)
chain: MARTTSQLYDAVPIQSSVVLCSCPSPSMVRTQTESSTPPGIPGGSRQGPAMDGTAAEPRPGAGSLQHAQPPPQPRKKRPEDFKFGKILGEGSFSTVVLARELATSREYAIKILEKRHIIKENKVPYVTRERDVMSRLDHPFFVKLYFTFQDDEKLYFGLSYAKNGELLKYIRKIGSFDETCTRFYTAEIVSALEYLHGKGIIHRDLKPENILLNEDMHIQITDFGTAKVLSPESKQARANSFVGTAQYVSPELLTEKSACKSSDLWALGCIIYQLVAGLPPFRAGNEYLIFQKIIKLEYDFPEKFFPKARDLVEKLLVLDATKRLGCEEMEGYGPLKAHPFFESVTWENLHQQTPPKLTAYLPAMSEDDEDCYGNYDNLLSQFGCMQVSSSSSSHSLSASDTGLPQRSGSNIEQYIHDLDSNSFELDLQFSEDEKRLLLEKQAGGNPWHQFVENNLILKMGPVDKRKGLFARRRQLLLTEGPHLYYVDPVNKVLKGEIPWSQELRPEAKNFKTFFVHTPNRTYYLMDPSGNAHKWCRKIQEVWRQRYQSHPDAAVQ
binding (HA-tagged AKT, P31749): binds

Binder: NHWINPHMLAPH (peptide, UniProt Q14201 241-252) [C5-derived peptide spanning the C-terminal half of C5 (C5-C)]
binding [1]: binds

B2: His-tagged, full-length BTG3 protein (protein, UniProt Q14201 1-252)
chain: MKNEIAAVVFFFTRLVRKHDKLKKEAVERFAEKLTLILQEKYKNHWYPEKPSKGQAYRCIRVNKFQRVDPDVLKACENSCILYSDLGLPKELTLWVDPCEVCCRYGEKNNAFIVASFENKDENKDEISRKVTRALDKVTSDYHSGSSSSDEETSKEMEVKPSSVTAAASPVYQISELIFPPLPMWHPLPRKKPGMYRGNGHQNHYPPPVPFGYPNQGRKNKPYRPIPVTWVPPPGMHCDRNHWINPHMLAPH
binding [2]: binds
binding [1]: binds

Second part, the binder after the results:

binding [3]: binds
B3: endogenous BTG3 (protein, UniProt Q14201 1-252)
chain: B2 chain

binding (HA-tagged AKT): binds
B4: myc-tagged BTG3 (protein, UniProt Q14201 1-252)
chain: B2 chain
